Measured values reported in article doi:10.1101/2025.07.20.665809 (bioRxiv, 2025).

Biological target: T1, Flag-Arc WT (Flag-hArc/Arg3.1) (human) (UniProt Q7LC44)
T1 sequence: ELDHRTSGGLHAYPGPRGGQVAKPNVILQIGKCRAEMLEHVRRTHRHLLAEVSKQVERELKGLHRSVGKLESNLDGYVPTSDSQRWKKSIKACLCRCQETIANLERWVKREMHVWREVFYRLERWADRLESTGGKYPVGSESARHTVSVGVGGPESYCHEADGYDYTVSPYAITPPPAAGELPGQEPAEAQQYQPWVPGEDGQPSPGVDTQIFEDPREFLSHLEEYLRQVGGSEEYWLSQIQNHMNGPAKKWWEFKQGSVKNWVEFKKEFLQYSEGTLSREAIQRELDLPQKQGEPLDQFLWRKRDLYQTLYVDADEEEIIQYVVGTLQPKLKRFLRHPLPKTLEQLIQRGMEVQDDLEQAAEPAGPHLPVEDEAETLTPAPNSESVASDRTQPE
Assay: co-IP

binding: binds
Substance: GFP-Hsp70

No constants are given. Whether binding was seen depends on the method and setting. In cells and extracts the contact can be indirect. A result given as binding can be weak or reduced; the word gives no strength. Where a sequence is shown, tags or fusion partners need not be part of it.
